Among all 260,000 compounds or so, about 1,500 (0.58%) were called active. The inconclusive results got no clear call from the source; some entries with a clear call stand among them for comparison.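 Rule for the calls: active = inhibition above a set limit at one or more doses, reproduced on every date tested; inconclusive = results disagree between test dates, or hit never tested in dose response; inactive = the rest.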
molecular target: Virion infectivity factor (Human immunodeficiency virus type 1 group M subtype B (isolate BH10)) + Virion infectivity factor (Human immunodeficiency virus type 1 group M subtype B (isolate BRU/LAI)) + Virion infectivity factor (Human immunodeficiency virus type 1 group M subtype B (isolate PCV12)) + Virion infectivity factor (Human immunodeficiency virus type 1 group M subtype B (isolate HXB2)) + DNA dC->dU-editing enzyme APOBEC-3G (Homo sapiens) (UniProt P69720+P69721+P69722+P69723+Q9HC16); assay: inhibitors of Vif binding to APOBEC3G peptide, primary screen, biochemical, TR-FRET, GST-Vif 1-94, biotin-A3G peptide, dose response retest (AID 1117319); conditions: active compounds read high;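 note: Vif residues 1-94 fused to GST binding biotinylated APOBEC3G peptide 110-148; 0% = full assay without inhibitor and 100% = GST in place of GST-Vif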

Sequences of proteins named here, by UniProt entry; tags and fusion partners are left off. A change or cut given only in a name is not applied to a line headed by its entry.
UniProt P69720: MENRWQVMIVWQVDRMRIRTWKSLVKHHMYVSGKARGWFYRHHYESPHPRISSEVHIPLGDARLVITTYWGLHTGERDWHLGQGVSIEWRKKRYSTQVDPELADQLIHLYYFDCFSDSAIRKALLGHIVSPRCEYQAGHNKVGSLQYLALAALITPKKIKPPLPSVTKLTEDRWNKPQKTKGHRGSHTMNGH
UniProt P69721: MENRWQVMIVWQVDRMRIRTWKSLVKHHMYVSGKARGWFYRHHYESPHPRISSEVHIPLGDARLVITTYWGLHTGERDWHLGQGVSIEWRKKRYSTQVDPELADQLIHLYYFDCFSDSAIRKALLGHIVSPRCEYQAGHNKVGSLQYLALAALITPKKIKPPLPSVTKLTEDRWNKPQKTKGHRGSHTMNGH
UniProt P69722: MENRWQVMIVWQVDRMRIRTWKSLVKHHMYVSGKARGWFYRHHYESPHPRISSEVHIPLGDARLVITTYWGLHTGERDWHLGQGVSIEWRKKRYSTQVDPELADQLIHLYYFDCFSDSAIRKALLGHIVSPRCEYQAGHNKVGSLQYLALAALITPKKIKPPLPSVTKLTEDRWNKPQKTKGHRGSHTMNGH
UniProt P69723: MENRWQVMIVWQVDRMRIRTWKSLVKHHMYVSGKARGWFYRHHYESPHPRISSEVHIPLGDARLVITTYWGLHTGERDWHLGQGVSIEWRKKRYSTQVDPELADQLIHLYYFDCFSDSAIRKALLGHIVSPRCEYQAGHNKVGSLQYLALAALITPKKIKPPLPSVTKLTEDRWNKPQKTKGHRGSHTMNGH
UniProt Q9HC16: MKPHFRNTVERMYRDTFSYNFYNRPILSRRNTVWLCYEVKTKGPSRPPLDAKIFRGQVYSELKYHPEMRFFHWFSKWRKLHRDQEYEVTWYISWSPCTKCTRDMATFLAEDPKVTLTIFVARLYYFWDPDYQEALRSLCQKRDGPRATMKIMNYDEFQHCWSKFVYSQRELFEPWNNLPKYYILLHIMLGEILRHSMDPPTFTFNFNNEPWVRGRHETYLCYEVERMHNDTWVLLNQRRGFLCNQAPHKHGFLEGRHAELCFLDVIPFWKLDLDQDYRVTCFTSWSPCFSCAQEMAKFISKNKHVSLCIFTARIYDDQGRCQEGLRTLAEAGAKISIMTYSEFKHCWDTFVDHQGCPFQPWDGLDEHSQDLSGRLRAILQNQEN

SMILES | inhibition
CCc1nnc(NC(=O)CSc2nnc(COc3ccc(C#N)cc3)n2-c2ccccc2)s1 | inconclusive: 43.5%
CCc1nc2ccccc2n1Cc1ccc(F)cc1 | inconclusive: 35.1%
Cc1csc2nc(CCNS(=O)(=O)c3ccc4c(c3)OCCO4)cn12 | inconclusive: 49.8%
NC(=O)N(CCC(=O)O)c1ccccc1 | inconclusive: 62.5%
CC(Cl)C(=O)Nc1cc(C(C)(C)C)nn1-c1ccccc1 (stereo not given) | inconclusive: 47%
CCc1ccc2oc(=O)cc(CN3CCN(CCO)CC3)c2c1 | inactive: 4.78%
Cc1ccc(NC(=S)N(CCCN2CCOCC2)Cc2ccco2)cc1C | inactive: -0.03%
O=C(Nc1ccc(Br)cn1)c1ccc2ccccc2c1 | inactive: -12.4%
COCCn1nnnc1C(c1cc2cc(C)ccc2[nH]c1=O)N1CCc2ccccc21 (stereo not given) | inactive: 17%
CCCc1cc(=O)n2[nH]c(C)cc2n1 | inconclusive: 39%
O=C(COC(=O)c1ccc(F)cc1F)Nc1ccc2[nH]c(=O)[nH]c2c1 | inconclusive: 44.5%
Cc1ccccc1N(CC(=O)O)S(C)(=O)=O | inconclusive: 61%
COc1coc(C(O)C[N+](=O)[O-])cc1=O (stereo not given) | inconclusive: 42.1%
CC(C)CCNC(=O)NC(=O)CSc1nnc(-c2ccccc2F)n1N | inconclusive: 39.5%
CCOc1ccc(C(=O)Nc2ccc(N3CCCC3)cc2)cc1 | inactive: -1.32%
CCS(=O)(=O)N1CCC(C(=O)NCCCN2CCC(Cc3ccccc3)CC2)CC1 | inconclusive: 57.9%
CNC(=O)c1ccsc1NC(=O)c1ccc(S(=O)(=O)N2CCc3ccccc32)cc1 | inconclusive: 44.6%
COc1ccc(CNC(=O)c2cc(C)nn2-c2ccccc2)cc1 | inconclusive: 55.5%
CC1CC(C)CN(CCCNC(=O)c2ccc(CS(=O)(=O)Cc3ccccc3F)o2)C1 (stereo not given) | inconclusive: 52.7%
Cc1cc(C)n(S(=O)(=O)/C=C/c2ccccc2)n1 | inconclusive: 60.9%

SMILES | inhibition
CCOC(=O)c1csc(NC(=O)c2ccc(N3C(=O)CCC3=O)cc2)n1 | inconclusive: 47.8%
CCCCCCNS(=O)(=O)c1ccc(OC)c(OC)c1 | inconclusive: 44.3%
CSc1ccccc1-c1nnc(-c2ccc(Cl)c(Cl)c2)o1 | inconclusive: 34.6%
COc1ccc(C)cc1NC(=O)C1C2C=CC(C2)C1C(=O)O (stereo not given) | inconclusive: 43.9%
COC(=O)c1c(C)oc(C)c1S(=O)(=O)N1CCCCC1 | inconclusive: 39.6%
Nc1nnc(SCc2ccc(Cl)cc2)s1 | inconclusive: 36.9%
Cc1c(Cl)cccc1N(CC(=O)O)S(C)(=O)=O | inconclusive: 12.5%
NC(=O)N/N=C/c1c(F)cccc1F | inconclusive: 45%
C=CCN(C(=O)c1csnn1)C(C(=O)NC(C)(C)C)c1ccncc1 (stereo not given) | inactive: 8.31%
O=C(O)CCN(Cc1ccccc1)S(=O)(=O)c1ccc(Cl)cc1F | inconclusive: 46.7%
NC(=O)CCn1ccc2ccccc21 | inconclusive: 48.7%
Cn1ccnc1C(=O)C1CCCN(Cc2cn[nH]c2-c2ccc(-c3ccccc3)cc2)C1 (stereo not given) | inconclusive: 43.7%
O=C(Cn1cncc1-c1ccc([N+](=O)[O-])cc1)Nc1cccc2ccccc12 | inconclusive: 35.2%
COc1ccccc1NC(=O)C1=C(C)N(c2ccccc2)C(=S)NC1c1cccc(C(F)(F)F)c1 (stereo not given) | inconclusive: 58.3%
CCOC(=O)c1c(C=O)c(C)n(Cc2ccccc2)c1C | inactive: 4.84%
CC(=O)C1=C(O)C(=O)N(c2cccc(Br)c2)C1c1ccccc1Cl (stereo not given) | inconclusive: 50.3%
CCOc1cc(C(=O)Oc2cc(C)[nH]c(=O)c2[N+](=O)[O-])cc(OCC)c1OCC | inactive: -2.15%
CCOC(=O)c1ccc2nc(NC(=O)c3ccco3)sc2c1 | inconclusive: 44.5%
Cc1cccc(C(=O)N2CCN(c3ncnc4c3cnn4-c3ccccc3)CC2)c1 | inconclusive: 34.8%
C=CCn1c(C)cc(C(=O)CSc2nc3ccccc3c(=O)[nH]2)c1C | inactive: 11.7%

SMILES | inhibition
COc1ccccc1P(=O)(c1ccccc1)c1ccccc1NC(C)=O (stereo not given) | inconclusive: 57.8%
O=C1NC(c2ccccc2)(C(F)(F)F)C(=O)N1Cc1cccnc1 (stereo not given) | inconclusive: 35.5%
C=CCN(c1ccc(C(=O)NC(C)C)cc1)S(C)(=O)=O | inconclusive: 45%
CCn1c2ccccc2c2cc(NC(=O)c3coc(=O)c(Br)c3)ccc21 | inconclusive: 47.5%
Cc1cccc(NC(=O)CN(C)S(=O)(=O)c2cccc3cccnc23)c1 | inactive: 2.4%
CCc1c(C(=O)NNC(=S)NCC(C)C)csc1C | inconclusive: 61.2%
Cc1ccc(C)c2[nH]c(=O)c(CN(CCN3CCOCC3)Cc3nnnn3CC3CCCO3)cc12 (stereo not given) | inconclusive: 36.1%
COc1ccc(N2CCCCn3c2nc2c3c(=O)n(C)c(=O)n2C)cc1 | inconclusive: 57%
O=C(NC1CCC(O)CC1)c1cc(-c2ccco2)nc2ccccc12 (stereo not given) | inconclusive: 54.4%
Cc1cnc(C(=O)OCC(=O)NC2CCCCCC2)cn1 | inconclusive: 38.4%
O=C1C=CC(=O)C(C2=C3C(=O)N(CCc4ccccc4)CC(=O)N3CCC2)=C1 | inconclusive: 61.9%
O=C(Cc1cccs1)Nc1ccc(S(=O)(=O)N2CCCC2)cc1 | inconclusive: 41.3%
Cc1ccc(C=Nc2ccc(N(C)C)cc2)o1 | inconclusive: 49.5%
CCCCOc1ccc(-c2nnn(CCC(=O)N3CCOCC3)n2)cc1 | inconclusive: 50.5%
Cc1ccc2cc3c(nc2c1)N(Cc1ccco1)CC3 | inconclusive: 39.8%
O=S(=O)(NCCN1CCCC1)c1ccc(C(F)(F)F)cc1 | inactive: 1.25%
CCCCC1OC23CCCCC2C(C#N)(C#N)C1(C#N)C(=N)O3 (stereo not given) | inconclusive: 48%
O=C(COC(=O)c1ccc[nH]c1=O)Nc1ccc2c(c1)OC(F)(F)O2 | inconclusive: 54.9%
C=CC[n+]1ccn(-c2nc3ccccc3nc2[N-]S(=O)(=O)c2cccs2)c1 | inconclusive: 53%
CC1=NN(c2ccc(S(=O)(=O)O)cc2Cl)C(=O)C1 | inconclusive: 41.1%

5 neighbouring compounds from above, for reference:
SMILES | inhibition
CCn1c2ccccc2c2cc(NC(=O)c3coc(=O)c(Br)c3)ccc21 | inconclusive: 47.5%
Cc1cccc(NC(=O)CN(C)S(=O)(=O)c2cccc3cccnc23)c1 | inactive: 2.4%
CCc1c(C(=O)NNC(=S)NCC(C)C)csc1C | inconclusive: 61.2%
Cc1ccc(C)c2[nH]c(=O)c(CN(CCN3CCOCC3)Cc3nnnn3CC3CCCO3)cc12 (stereo not given) | inconclusive: 36.1%
COc1ccc(N2CCCCn3c2nc2c3c(=O)n(C)c(=O)n2C)cc1 | inconclusive: 57%

— PubChem BioAssay AID1117319 (Southern Research Institute, 2015)
